The supplement of paper PMC10849652
Some of the results follow.

By UniProt entry, the sequences of proteins in these tests, tags left out. Where a name states a change or a piece, a line headed by the entry shows the natural chain unless it says otherwise.
UniProt Q9BQI3, whole entry, looked up: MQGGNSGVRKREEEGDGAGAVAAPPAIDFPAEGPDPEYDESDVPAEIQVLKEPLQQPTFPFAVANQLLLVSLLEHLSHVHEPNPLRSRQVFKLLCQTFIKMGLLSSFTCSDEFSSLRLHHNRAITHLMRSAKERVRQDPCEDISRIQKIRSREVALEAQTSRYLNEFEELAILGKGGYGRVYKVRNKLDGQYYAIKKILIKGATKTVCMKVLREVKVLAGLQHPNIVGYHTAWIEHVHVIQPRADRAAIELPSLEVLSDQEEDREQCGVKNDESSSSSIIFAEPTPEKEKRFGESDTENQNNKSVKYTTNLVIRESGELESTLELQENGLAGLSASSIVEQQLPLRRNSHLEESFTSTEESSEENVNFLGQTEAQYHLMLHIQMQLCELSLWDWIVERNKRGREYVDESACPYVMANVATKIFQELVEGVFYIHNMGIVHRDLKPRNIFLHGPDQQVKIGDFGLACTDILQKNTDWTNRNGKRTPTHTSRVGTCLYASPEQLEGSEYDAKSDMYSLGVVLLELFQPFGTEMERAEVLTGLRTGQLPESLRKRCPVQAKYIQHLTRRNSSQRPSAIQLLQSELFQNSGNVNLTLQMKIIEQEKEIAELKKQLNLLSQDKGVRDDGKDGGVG
UniProt O60573: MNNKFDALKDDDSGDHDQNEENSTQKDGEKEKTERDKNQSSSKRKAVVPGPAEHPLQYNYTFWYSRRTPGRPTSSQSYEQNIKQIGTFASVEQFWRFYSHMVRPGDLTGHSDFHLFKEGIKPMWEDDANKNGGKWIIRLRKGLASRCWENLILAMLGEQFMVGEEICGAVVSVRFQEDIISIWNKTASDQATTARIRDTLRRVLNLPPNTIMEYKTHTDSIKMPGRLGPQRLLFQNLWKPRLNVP
UniProt P41091, whole entry, looked up: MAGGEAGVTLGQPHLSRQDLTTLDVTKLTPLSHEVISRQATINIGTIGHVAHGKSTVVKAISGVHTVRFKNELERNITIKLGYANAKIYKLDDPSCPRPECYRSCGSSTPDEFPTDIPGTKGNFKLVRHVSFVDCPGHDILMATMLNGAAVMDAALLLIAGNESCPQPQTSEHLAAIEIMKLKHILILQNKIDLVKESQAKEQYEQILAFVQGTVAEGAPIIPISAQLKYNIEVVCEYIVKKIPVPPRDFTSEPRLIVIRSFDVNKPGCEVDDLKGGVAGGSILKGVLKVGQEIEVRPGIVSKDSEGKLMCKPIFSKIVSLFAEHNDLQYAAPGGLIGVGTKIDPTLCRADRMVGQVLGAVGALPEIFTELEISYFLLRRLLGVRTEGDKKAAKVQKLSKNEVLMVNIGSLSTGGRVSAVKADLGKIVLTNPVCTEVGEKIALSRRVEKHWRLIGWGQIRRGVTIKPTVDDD
UniProt Q92556, whole entry, looked up: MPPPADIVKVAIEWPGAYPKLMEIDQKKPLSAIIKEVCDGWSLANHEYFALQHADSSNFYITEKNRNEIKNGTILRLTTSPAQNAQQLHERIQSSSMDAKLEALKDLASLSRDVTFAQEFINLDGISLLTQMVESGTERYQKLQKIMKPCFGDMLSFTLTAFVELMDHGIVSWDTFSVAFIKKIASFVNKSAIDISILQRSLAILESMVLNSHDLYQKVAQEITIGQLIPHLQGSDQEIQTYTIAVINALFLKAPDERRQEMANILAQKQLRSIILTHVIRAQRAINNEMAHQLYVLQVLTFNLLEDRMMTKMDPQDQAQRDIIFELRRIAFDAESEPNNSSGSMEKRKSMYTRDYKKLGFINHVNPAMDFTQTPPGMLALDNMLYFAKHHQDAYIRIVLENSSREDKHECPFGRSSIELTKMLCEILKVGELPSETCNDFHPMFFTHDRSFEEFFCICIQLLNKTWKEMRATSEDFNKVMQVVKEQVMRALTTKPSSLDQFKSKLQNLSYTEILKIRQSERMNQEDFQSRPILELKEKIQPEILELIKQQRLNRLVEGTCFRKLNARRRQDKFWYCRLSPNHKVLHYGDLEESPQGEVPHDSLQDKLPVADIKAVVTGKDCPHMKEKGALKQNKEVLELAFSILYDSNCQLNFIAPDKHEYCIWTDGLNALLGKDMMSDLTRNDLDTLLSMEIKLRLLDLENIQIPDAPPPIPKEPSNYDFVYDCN
UniProt Q9BQ52: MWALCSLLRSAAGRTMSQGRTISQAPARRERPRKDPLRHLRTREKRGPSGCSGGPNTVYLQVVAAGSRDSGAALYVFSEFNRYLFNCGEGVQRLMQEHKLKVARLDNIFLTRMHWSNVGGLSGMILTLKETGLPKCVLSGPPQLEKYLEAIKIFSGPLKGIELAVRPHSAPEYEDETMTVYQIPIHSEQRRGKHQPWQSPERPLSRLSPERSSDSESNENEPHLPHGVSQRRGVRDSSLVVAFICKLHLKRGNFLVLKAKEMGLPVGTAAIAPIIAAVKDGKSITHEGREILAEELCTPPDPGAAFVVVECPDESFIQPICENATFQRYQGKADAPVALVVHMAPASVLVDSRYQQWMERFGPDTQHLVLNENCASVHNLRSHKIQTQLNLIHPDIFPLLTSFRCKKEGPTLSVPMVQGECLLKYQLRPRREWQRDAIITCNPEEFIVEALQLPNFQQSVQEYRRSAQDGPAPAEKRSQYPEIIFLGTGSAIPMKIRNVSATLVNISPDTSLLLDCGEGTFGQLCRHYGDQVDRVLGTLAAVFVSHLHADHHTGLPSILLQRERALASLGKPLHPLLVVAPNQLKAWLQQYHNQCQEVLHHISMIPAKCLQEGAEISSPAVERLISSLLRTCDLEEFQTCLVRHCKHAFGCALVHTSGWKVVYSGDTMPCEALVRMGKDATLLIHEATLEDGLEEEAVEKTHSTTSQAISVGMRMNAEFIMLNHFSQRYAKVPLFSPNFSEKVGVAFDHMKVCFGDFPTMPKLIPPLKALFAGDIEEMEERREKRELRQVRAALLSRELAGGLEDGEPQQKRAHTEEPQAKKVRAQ
UniProt Q8N766: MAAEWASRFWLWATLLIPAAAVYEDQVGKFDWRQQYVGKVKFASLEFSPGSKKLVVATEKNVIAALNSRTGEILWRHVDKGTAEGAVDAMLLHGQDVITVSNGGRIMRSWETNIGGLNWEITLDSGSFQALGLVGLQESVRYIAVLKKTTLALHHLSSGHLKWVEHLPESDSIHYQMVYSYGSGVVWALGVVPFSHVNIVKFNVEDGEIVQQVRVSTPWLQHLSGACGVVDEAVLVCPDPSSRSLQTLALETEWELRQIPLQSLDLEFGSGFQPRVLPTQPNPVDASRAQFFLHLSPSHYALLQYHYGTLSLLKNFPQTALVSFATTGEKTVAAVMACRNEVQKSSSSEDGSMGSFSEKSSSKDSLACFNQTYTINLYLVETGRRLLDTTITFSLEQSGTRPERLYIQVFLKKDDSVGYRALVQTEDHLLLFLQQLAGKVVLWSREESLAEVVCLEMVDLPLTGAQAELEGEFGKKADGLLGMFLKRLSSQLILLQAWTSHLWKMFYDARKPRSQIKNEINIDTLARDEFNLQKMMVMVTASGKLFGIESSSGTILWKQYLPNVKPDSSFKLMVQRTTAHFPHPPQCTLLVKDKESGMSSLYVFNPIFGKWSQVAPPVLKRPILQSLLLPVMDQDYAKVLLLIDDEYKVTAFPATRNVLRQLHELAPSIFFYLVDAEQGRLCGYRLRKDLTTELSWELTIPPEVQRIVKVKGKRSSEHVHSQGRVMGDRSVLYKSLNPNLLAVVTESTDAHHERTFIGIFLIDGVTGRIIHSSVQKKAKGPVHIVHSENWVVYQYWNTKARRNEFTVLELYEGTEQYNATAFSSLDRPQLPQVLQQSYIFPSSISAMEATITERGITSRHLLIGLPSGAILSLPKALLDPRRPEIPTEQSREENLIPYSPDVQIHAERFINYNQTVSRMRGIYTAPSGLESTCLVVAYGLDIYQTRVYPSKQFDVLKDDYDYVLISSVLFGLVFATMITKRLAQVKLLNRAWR
UniProt Q92979: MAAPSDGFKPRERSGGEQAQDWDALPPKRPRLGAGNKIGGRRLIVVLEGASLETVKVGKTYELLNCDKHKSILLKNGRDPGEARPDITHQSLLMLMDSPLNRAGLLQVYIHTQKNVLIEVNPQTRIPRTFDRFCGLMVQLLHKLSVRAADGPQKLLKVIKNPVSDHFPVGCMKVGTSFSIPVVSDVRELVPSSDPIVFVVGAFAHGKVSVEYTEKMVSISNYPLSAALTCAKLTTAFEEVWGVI
UniProt P06730, whole entry, looked up: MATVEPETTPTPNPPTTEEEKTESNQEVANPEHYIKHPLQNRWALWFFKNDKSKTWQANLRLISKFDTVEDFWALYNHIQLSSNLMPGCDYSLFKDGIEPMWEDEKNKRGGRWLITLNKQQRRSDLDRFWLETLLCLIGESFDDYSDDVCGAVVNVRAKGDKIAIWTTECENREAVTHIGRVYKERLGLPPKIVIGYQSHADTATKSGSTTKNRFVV
UniProt P78344: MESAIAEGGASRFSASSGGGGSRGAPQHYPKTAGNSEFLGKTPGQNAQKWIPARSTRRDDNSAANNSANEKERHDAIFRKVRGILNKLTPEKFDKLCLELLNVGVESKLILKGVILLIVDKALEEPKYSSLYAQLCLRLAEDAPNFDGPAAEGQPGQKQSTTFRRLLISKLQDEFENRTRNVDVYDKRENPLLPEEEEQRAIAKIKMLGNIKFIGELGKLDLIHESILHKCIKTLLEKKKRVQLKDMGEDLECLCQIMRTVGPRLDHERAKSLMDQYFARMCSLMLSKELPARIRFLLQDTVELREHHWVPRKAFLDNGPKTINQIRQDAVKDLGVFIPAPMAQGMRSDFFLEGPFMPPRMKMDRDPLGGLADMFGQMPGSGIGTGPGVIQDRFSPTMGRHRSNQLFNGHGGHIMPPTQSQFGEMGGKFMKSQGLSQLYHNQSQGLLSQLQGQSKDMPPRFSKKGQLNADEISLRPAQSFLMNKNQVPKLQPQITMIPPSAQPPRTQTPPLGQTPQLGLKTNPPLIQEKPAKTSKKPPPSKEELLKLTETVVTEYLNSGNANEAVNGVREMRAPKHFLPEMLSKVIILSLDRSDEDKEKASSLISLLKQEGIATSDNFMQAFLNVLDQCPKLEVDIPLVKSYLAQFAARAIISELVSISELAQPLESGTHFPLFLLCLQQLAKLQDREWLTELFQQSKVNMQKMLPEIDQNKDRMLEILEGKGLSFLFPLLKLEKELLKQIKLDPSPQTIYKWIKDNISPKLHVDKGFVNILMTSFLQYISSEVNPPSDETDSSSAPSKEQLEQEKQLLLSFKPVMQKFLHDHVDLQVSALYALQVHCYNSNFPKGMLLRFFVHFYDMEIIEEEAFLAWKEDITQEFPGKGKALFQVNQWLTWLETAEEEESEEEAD
UniProt Q15717, whole entry, looked up: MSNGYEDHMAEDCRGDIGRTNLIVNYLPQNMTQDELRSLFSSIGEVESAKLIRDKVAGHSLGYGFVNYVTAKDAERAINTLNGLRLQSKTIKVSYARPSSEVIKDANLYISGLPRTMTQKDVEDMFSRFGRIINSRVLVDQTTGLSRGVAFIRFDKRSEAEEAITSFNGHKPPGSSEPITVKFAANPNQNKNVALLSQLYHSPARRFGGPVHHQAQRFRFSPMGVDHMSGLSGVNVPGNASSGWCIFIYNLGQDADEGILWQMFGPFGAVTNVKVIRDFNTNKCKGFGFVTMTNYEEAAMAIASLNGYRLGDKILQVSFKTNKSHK
UniProt Q9Y262, whole entry, looked up: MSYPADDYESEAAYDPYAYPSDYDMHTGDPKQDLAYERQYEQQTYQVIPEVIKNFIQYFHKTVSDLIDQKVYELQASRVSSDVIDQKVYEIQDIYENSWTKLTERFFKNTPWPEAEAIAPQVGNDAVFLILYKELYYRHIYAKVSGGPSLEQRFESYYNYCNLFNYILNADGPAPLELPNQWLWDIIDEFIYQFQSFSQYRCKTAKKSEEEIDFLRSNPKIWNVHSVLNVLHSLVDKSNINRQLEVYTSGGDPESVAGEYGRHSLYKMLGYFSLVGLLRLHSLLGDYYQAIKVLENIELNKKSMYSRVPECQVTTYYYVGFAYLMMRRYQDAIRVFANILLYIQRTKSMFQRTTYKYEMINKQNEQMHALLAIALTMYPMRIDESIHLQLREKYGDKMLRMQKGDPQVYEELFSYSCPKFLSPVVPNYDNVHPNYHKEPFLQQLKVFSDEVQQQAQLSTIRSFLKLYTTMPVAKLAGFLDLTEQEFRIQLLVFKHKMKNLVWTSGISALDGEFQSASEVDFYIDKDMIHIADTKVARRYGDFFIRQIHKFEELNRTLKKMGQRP
UniProt P55010, whole entry, looked up: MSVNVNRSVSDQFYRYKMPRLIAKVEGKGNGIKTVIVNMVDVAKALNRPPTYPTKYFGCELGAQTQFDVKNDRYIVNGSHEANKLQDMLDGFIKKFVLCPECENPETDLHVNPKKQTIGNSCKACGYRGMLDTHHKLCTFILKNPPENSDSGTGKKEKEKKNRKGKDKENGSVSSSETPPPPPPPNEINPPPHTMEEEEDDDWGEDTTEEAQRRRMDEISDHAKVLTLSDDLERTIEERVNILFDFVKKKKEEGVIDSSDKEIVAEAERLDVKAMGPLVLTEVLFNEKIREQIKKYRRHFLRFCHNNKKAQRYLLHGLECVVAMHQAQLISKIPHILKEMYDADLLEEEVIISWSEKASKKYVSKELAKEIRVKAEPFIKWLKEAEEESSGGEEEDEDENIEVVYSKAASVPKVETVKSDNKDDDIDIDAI

Legend:
Experiment in all cases: log2 fold change, soluble protein after heating vs DMSO (PISA); higher = thermal stabilisation; K562 lysate, 10 uM; active = over 0.2 and 3.5 SD of the protein, either way, in both replicates (recomputed)
lapatinib = compound: CS(=O)(=O)CCNCc1ccc(-c2ccc3ncnc(Nc4ccc(OCc5cccc(F)c5)c(Cl)c4)c3c2)o1 [lapatinib]
Summary of the method: (§1)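 A 30 min treatment with 10 μM compound was applied to crude K562 extract at 1 mg/mL protein in PBS pH 7.4 with 1 mM MgCl2. Heating for 3 min spanned 48°C-58°C, after which aliquots were pooled, adjusted to 0.5% NP-40 at 4°C and spun at 21,000xg for 90 min. TMTpro 16plex LC-MS/MS of the supernatant, with channel sums equalised, gave values recorded as log-two fold change in thermal stability against solvent controls, from duplicates.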

pictilisib = compound: CS(=O)(=O)N1CCN(Cc2cc3nc(-c4cccc5[nH]ncc45)nc(N4CCOCC4)c3s2)CC1 [pictilisib]
Summary of the method: as §1

crizotinib = compound: C[C@@H](Oc1cc(-c2cnn(C3CCNCC3)c2)cnc1N)c1c(Cl)ccc(F)c1Cl [crizotinib]
Summary of the method: as §1

[1] = compound: C[C@H](C1=CC=C(C=C1)C(=O)NC2=C3C=CNC3=NC=C2)N
Summary of the method: as §1

duvelisib = compound: C[C@H](Nc1ncnc2nc[nH]c12)c1cc2cccc(Cl)c2c(=O)n1-c1ccccc1 [duvelisib]
Summary of the method: as §1

gandotinib = compound: Cc1cc(Nc2cc(CN3CCOCC3)c3nc(C)c(Cc4ccc(Cl)cc4F)n3n2)n[nH]1 [gandotinib]
Summary of the method: as §1

tozasertib = compound: Cc1cc(Nc2cc(N3CCN(C)CC3)nc(Sc3ccc(NC(=O)C4CC4)cc3)n2)n[nH]1 [tozasertib]
Summary of the method: as §1

doramapimod = compound: Cc1ccc(-n2nc(C(C)(C)C)cc2NC(=O)Nc2ccc(OCCN3CCOCC3)c3ccccc23)cc1 [doramapimod]
Summary of the method: as §1

bafetinib = compound: Cc1ccc(NC(=O)c2ccc(CN3CC[C@H](N(C)C)C3)c(C(F)(F)F)c2)cc1Nc1nccc(-c2cncnc2)n1 [bafetinib]
Summary of the method: as §1

[2] = compound: Cc1cccc(CC(=O)N2CCc3c2ccc(-c2cn(C)c4ncnc(N)c24)c3F)n1
Summary of the method: as §1

nilotinib = compound: Cc1cn(-c2cc(NC(=O)c3ccc(C)c(Nc4nccc(-c5cccnc5)n4)c3)cc(C(F)(F)F)c2)cn1 [nilotinib]
Summary of the method: as §1

[3] = compound: Cc1nc(Nc2n[nH]c3c2CN(C(=O)N[C@H](CN(C)C)c2ccccc2)C3(C)C)c2sccc2n1
Summary of the method: as §1

dasatinib = compound: Cc1nc(Nc2ncc(C(=O)Nc3c(C)cccc3Cl)s2)cc(N2CCN(CCO)CC2)n1 [dasatinib]
Summary of the method: as §1

[4] = compound: Cc1ncc(-c2ccnc(Nc3ccc(S(C)(=O)=O)cc3)n2)n1C(C)C
Summary of the method: as §1

[5] = compound: Cn1cc(-c2ccc3c(c2)CCN3C(=O)Cc2cccc(C(F)(F)F)c2)c2c(N)ncnc21
Summary of the method: as §1

quisinostat = compound: Cn1cc(CNCC2CCN(c3ncc(C(=O)NO)cn3)CC2)c2ccccc21 [quisinostat]
Summary of the method: as §1

tipifarnib = compound: Cn1cncc1[C@@](N)(c1ccc(Cl)cc1)c1ccc2c(c1)c(-c1cccc(Cl)c1)cc(=O)n2C [tipifarnib]
Summary of the method: as §1

[6] = compound: NC(=O)Nc1cc(-c2cccc(F)c2)sc1C(=O)N[C@H]1CCCNC1
Summary of the method: as §1

[7] = compound: NC(=O)c1cnc(N[C@@H]2CCCC[C@@H]2N)nc1Nc1cccc(-n2nccn2)c1
Summary of the method: as §1

[8] = compound: NC1(c2ccc(-c3nc4ccn5c(=O)[nH]nc5c4cc3-c3ccccc3)cc2)CCC1
Summary of the method: as §1

Measured: log2 fold change

EIF2AK1 (UniProt Q9BQI3)
inactive: lapatinib 0.142 | pictilisib -0.022 | crizotinib -0.036 | [1] -0.033 | duvelisib 0.06 | gandotinib -0.009 | tozasertib -0.009 | doramapimod 0.017 | bafetinib -0.068 | [2] 0.062 | nilotinib -0.006 | [3] 0.211 | dasatinib -0.027 | [4] -0.154 | [5] 0.078 | quisinostat -0.077 | tipifarnib 0.007 | [6] -0.031 | [7] 0.062 | [8] 0.021

EIF4E2 (UniProt O60573)
inactive: lapatinib 0.008 | pictilisib -0.009 | crizotinib 0.073 | [1] -0.032 | duvelisib 0 | gandotinib 0.107 | tozasertib -0.038 | doramapimod -0.225 | bafetinib -0.019 | [2] 0.097 | nilotinib 0.007 | [3] 0.053 | dasatinib -0.036 | [4] 0.033 | [5] 0.005 | quisinostat 0.134 | tipifarnib -0.066 | [6] -0.045 | [7] 0.001 | [8] -0.031

EIF2S3 (UniProt P41091)
inactive: lapatinib -0.03 | pictilisib 0.009 | crizotinib 0.021 | [1] 0.007 | duvelisib -0.022 | gandotinib 0.025 | tozasertib -0.011 | doramapimod -0.018 | bafetinib 0.035 | [2] -0.04 | nilotinib 0.016 | [3] 0.018 | dasatinib 0.03 | [4] 0.017 | [5] -0.014 | quisinostat 0.017 | tipifarnib 0.061 | [6] -0.021 | [7] -0.018 | [8] -0.008

ELMO1 (UniProt Q92556)
inactive: lapatinib 0.01 | pictilisib -0.013 | crizotinib -0.152 | [1] -0.051 | duvelisib 0.032 | gandotinib -0.011 | tozasertib -0.055 | doramapimod 0.156 | bafetinib -0.183 | [2] 0.058 | nilotinib -0.115 | [3] 0.018 | dasatinib -0.07 | [4] 0.038 | [5] -0.135 | quisinostat -0.134 | tipifarnib -0.295 | [6] 0.033 | [7] -0.035 | [8] 0.023

ELAC2 (UniProt Q9BQ52)
inactive: lapatinib -0.006 | pictilisib -0.011 | crizotinib -0.006 | [1] -0.125 | duvelisib 0.003 | gandotinib 0.115 | tozasertib -0.015 | doramapimod 0.033 | bafetinib 0.063 | [2] 0.093 | nilotinib 0.01 | [3] 0.007 | dasatinib 0.01 | [4] 0 | [5] -0.062 | quisinostat 0.002 | tipifarnib -0.006 | [6] -0.009 | [7] 0.009 | [8] 0.004

EMC1 (UniProt Q8N766)
inactive: lapatinib -0.028 | pictilisib -0.025 | crizotinib -0.007 | [1] -0.135 | duvelisib 0.016 | gandotinib 0.005 | tozasertib 0.028 | doramapimod -0.003 | bafetinib -0.025 | [2] 0.043 | nilotinib 0.014 | [3] -0.013 | dasatinib -0.008 | [4] -0.005 | [5] 0.009 | quisinostat -0.012 | tipifarnib -0.013 | [6] 0.046 | [7] 0.007 | [8] -0.01

EMG1 (UniProt Q92979)
inactive: lapatinib -0.007 | pictilisib 0.004 | crizotinib -0.063 | [1] -0.044 | duvelisib 0.029 | gandotinib 0.026 | tozasertib -0.031 | doramapimod 0.027 | bafetinib -0.035 | [2] 0.014 | nilotinib 0.023 | [3] -0.009 | dasatinib -0.029 | [4] 0.019 | [5] 0.022 | quisinostat -0.025 | tipifarnib 0.058 | [6] 0.019 | [7] -0.006 | [8] -0.032

EIF4E isoform 2 (UniProt P06730)
inactive: lapatinib 0.055 | pictilisib 0.015 | crizotinib -0.022 | [1] -0.014 | duvelisib 0.018 | gandotinib -0.008 | tozasertib 0.009 | doramapimod 0.003 | bafetinib 0.04 | [2] 0.032 | nilotinib 0.076 | [3] -0.003 | dasatinib -0.073 | [4] -0.001 | [5] 0.027 | quisinostat 0.037 | tipifarnib 0.016 | [6] 0.017 | [7] 0.013 | [8] 0.053

EIF4G2 (UniProt P78344)
inactive: lapatinib -0.012 | pictilisib 0.049 | crizotinib 0.007 | [1] -0.006 | duvelisib -0.055 | gandotinib -0.093 | tozasertib 0.014 | doramapimod 0.053 | bafetinib -0.021 | [2] 0.018 | nilotinib 0.021 | [3] 0 | dasatinib -0.095 | [4] 0 | [5] 0.051 | quisinostat -0.02 | tipifarnib -0.006 | [6] 0.001 | [7] 0.001 | [8] 0.029

ERH (UniProt P84090)
inactive: lapatinib 0.027 | pictilisib -0.04 | crizotinib 0.056 | [1] -0.003 | duvelisib 0.01 | gandotinib 0.019 | tozasertib 0.037 | doramapimod -0.049 | bafetinib 0.033 | [2] -0.037 | nilotinib 0.009 | [3] -0.022 | dasatinib 0.033 | [4] -0.017 | [5] 0.047 | quisinostat -0.007 | tipifarnib 0.018 | [6] -0.067 | [7] -0.005 | [8] 0.029

ELP1 (UniProt O95163)
inactive: lapatinib -0.028 | pictilisib -0.002 | crizotinib -0.013 | [1] -0.095 | duvelisib 0.025 | gandotinib 0.041 | tozasertib -0.008 | doramapimod 0.025 | bafetinib -0.026 | [2] 0.058 | nilotinib 0.004 | [3] 0.018 | dasatinib -0.006 | [4] -0.004 | [5] 0.006 | quisinostat 0.022 | tipifarnib -0.001 | [6] 0.001 | [7] 0.015 | [8] -0.028

EPHX2 (UniProt P34913)
inactive: lapatinib -0.031 | pictilisib -0.019 | crizotinib 0.061 | [1] 0.008 | duvelisib -0.031 | gandotinib 0.057 | tozasertib 0.116 | doramapimod -0.079 | bafetinib 0.131 | [2] 0.012 | nilotinib 0.097 | [3] -0.036 | dasatinib 0.005 | [4] 0.027 | [5] 0.007 | quisinostat 0.02 | tipifarnib 0.021 | [6] -0.036 | [7] -0.021 | [8] -0.015

Reprinted from the entries so far (two entries):
ERH (UniProt P84090)
inactive: lapatinib 0.027 | pictilisib -0.04 | crizotinib 0.056 | [1] -0.003 | duvelisib 0.01 | gandotinib 0.019 | tozasertib 0.037 | doramapimod -0.049 | bafetinib 0.033 | [2] -0.037 | nilotinib 0.009 | [3] -0.022 | dasatinib 0.033 | [4] -0.017 | [5] 0.047 | quisinostat -0.007 | tipifarnib 0.018 | [6] -0.067 | [7] -0.005 | [8] 0.029

ELP1 (UniProt O95163)
inactive: lapatinib -0.028 | pictilisib -0.002 | crizotinib -0.013 | [1] -0.095 | duvelisib 0.025 | gandotinib 0.041 | tozasertib -0.008 | doramapimod 0.025 | bafetinib -0.026 | [2] 0.058 | nilotinib 0.004 | [3] 0.018 | dasatinib -0.006 | [4] -0.004 | [5] 0.006 | quisinostat 0.022 | tipifarnib -0.001 | [6] 0.001 | [7] 0.015 | [8] -0.028

Going on with the list.

ELAVL1 isoform 2 (UniProt Q15717)
inactive: lapatinib 0.031 | pictilisib -0.002 | crizotinib -0.037 | [1] 0.055 | duvelisib 0.001 | gandotinib -0.067 | tozasertib -0.047 | doramapimod 0.007 | bafetinib -0.004 | [2] -0.026 | nilotinib -0.035 | [3] -0.014 | dasatinib -0.029 | [4] -0.009 | [5] 0.037 | quisinostat -0.079 | tipifarnib 0.003 | [6] 0.034 | [7] 0.008 | [8] 0.03

EIF3L (UniProt Q9Y262)
inactive: lapatinib -0.01 | pictilisib 0.002 | crizotinib -0.019 | [1] -0.015 | duvelisib -0.009 | gandotinib -0.025 | tozasertib 0.012 | doramapimod 0.003 | bafetinib 0.009 | [2] -0.012 | nilotinib -0.019 | [3] -0.016 | dasatinib 0.013 | [4] 0.01 | [5] 0.008 | quisinostat 0 | tipifarnib 0.015 | [6] 0.015 | [7] -0.003 | [8] -0.027

EIF5 (UniProt P55010)
inactive: lapatinib -0.005 | pictilisib -0.023 | crizotinib 0.01 | [1] 0.042 | duvelisib 0 | gandotinib -0.029 | tozasertib 0.018 | doramapimod -0.012 | bafetinib 0.027 | [2] -0.028 | nilotinib 0.001 | [3] -0.01 | dasatinib -0.024 | [4] 0.004 | [5] -0.022 | quisinostat 0.033 | tipifarnib 0.001 | [6] -0.01 | [7] -0.016 | [8] 0.002

EOGT (UniProt Q5NDL2)
inactive: lapatinib 0.014 | pictilisib -0.011 | crizotinib 0.007 | [1] -0.007 | duvelisib -0.009 | gandotinib -0.006 | tozasertib 0.006 | doramapimod 0.034 | bafetinib -0.069 | [2] 0.014 | nilotinib 0.029 | [3] 0.046 | dasatinib -0.093 | [4] 0.018 | [5] -0.033 | quisinostat 0.066 | tipifarnib 0.022 | [6] -0.002 | [7] 0.001 | [8] -0.032
